PubChem BioAssay AID1259308 | NCATS, 2017
Screen: 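Candidate targets for better recombinant protein yield in mammalian cells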 (primary screen). Cell system: human HEK293 embryonic kidney cells stably expressing firefly luciferase (HEK-CMV-Luc2-Hygro). Reagents: single siRNA against human genes, 0.8 pmol siRNA per well. Time to read-out: 72 h. Read-out: 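Reporter luminescence and viable-cell signal on separate replicate plates, given as percent of non-targeting control and median/MAD z-scores, plus per-cell luciferase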. Direction: total luciferase, z-score and total luciferase, % of control: higher = more reporter protein produced. Active means: 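Active when the median/MAD z-score for overall luciferase is greater than 3; a gene was taken forward for validation with new siRNAs if at least two of its three siRNAs passed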. Meaning of the calls: active = raised luciferase; inactive = no rise.
In all, the deposit lists about 59,000 reagents; this is an unselected part. Over the whole deposit, about 1,510 (2.6%) got an active call. 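Calls use total luciferase alone and ignore viability, so some active siRNAs may act by altering cell number.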 Entries without a mark were called inactive. The numbers tell different reagents against one gene apart. Further read-outs or replicates are left out here.

GFRA1 (GDNF family receptor alpha 1) #1: total luciferase, z-score = -1.41; total luciferase, % of control = 53.9
GFRA1 (GDNF family receptor alpha 1) #2: total luciferase, z-score = 1.42; total luciferase, % of control = 110
GFRA1 (GDNF family receptor alpha 1) #3: total luciferase, z-score = -2.1; total luciferase, % of control = 40
YIPF5 (Yip1 domain family member 5) #1: total luciferase, z-score = 1.37; total luciferase, % of control = 109
YIPF5 (Yip1 domain family member 5) #2: total luciferase, z-score = 0.182; total luciferase, % of control = 85.5
YIPF5 (Yip1 domain family member 5) #3: total luciferase, z-score = 0.568; total luciferase, % of control = 93.2
ASPNAT (aspartate N-acetyltransferase) #1: total luciferase, z-score = -0.492; total luciferase, % of control = 72.1
ASPNAT (aspartate N-acetyltransferase) #2: total luciferase, z-score = -0.0796; total luciferase, % of control = 80.3
ASPNAT (aspartate N-acetyltransferase) #3: total luciferase, z-score = 0.234; total luciferase, % of control = 86.5
LRRIQ1 (leucine rich repeats and IQ motif containing 1) #1: total luciferase, z-score = -0.438; total luciferase, % of control = 73.2
LRRIQ1 (leucine rich repeats and IQ motif containing 1) #2: total luciferase, z-score = 0.264; total luciferase, % of control = 87.1
LRRIQ1 (leucine rich repeats and IQ motif containing 1) #3: total luciferase, z-score = -1.23; total luciferase, % of control = 57.5
ZNF133 (zinc finger protein 133) #1: total luciferase, z-score = 0.732; total luciferase, % of control = 96.4
ZNF133 (zinc finger protein 133) #2: total luciferase, z-score = -0.4; total luciferase, % of control = 73.9
ZNF133 (zinc finger protein 133) #3: total luciferase, z-score = -1.45; total luciferase, % of control = 53
SLC2A11 #1: total luciferase, z-score = 0.379; total luciferase, % of control = 89.4
SLC2A11 #2: total luciferase, z-score = -0.468; total luciferase, % of control = 72.6
SLC2A11 #3: total luciferase, z-score = 0.831; total luciferase, % of control = 98.4
OR2T10 (olfactory receptor family 2 subfamily T member 10) #1: total luciferase, z-score = 1.07; total luciferase, % of control = 103
OR2T10 (olfactory receptor family 2 subfamily T member 10) #2: total luciferase, z-score = 1.51; total luciferase, % of control = 112
OR2T10 (olfactory receptor family 2 subfamily T member 10) #3: total luciferase, z-score = -0.417; total luciferase, % of control = 73.6
RILP (Rab interacting lysosomal protein) #1: total luciferase, z-score = 1.34; total luciferase, % of control = 109
RILP (Rab interacting lysosomal protein) #2: total luciferase, z-score = -0.244; total luciferase, % of control = 77
RILP (Rab interacting lysosomal protein) #3: total luciferase, z-score = 0.0289; total luciferase, % of control = 82.5
CNTF (ciliary neurotrophic factor) #1: total luciferase, z-score = 3.37 (active); total luciferase, % of control = 149
CNTF (ciliary neurotrophic factor) #2: total luciferase, z-score = 1.44; total luciferase, % of control = 110
CNTF (ciliary neurotrophic factor) #3: total luciferase, z-score = 3.34 (active); total luciferase, % of control = 148
TDRD1 (tudor domain containing 1) #1: total luciferase, z-score = 1.68; total luciferase, % of control = 115
TDRD1 (tudor domain containing 1) #2: total luciferase, z-score = -0.732; total luciferase, % of control = 67.3
TDRD1 (tudor domain containing 1) #3: total luciferase, z-score = 0.197; total luciferase, % of control = 85.8
UBE2L6 (ubiquitin conjugating enzyme E2 L6) #1: total luciferase, z-score = -0.253; total luciferase, % of control = 76.9
UBE2L6 (ubiquitin conjugating enzyme E2 L6) #2: total luciferase, z-score = 1.32; total luciferase, % of control = 108
UBE2L6 (ubiquitin conjugating enzyme E2 L6) #3: total luciferase, z-score = -2.32; total luciferase, % of control = 35.8

Targets above whose target name begins with Z or z (3):
ZNF133 (zinc finger protein 133) #1: total luciferase, z-score = 0.732; total luciferase, % of control = 96.4
ZNF133 (zinc finger protein 133) #2: total luciferase, z-score = -0.4; total luciferase, % of control = 73.9
ZNF133 (zinc finger protein 133) #3: total luciferase, z-score = -1.45; total luciferase, % of control = 53
